Results on one molecule are retold here after US5954858A, “Bioreactor process for the continuous removal of organic compounds from a vapor phase process stream” (North Carolina State University, priority 1996, dated 1999).

The data set can be described thus: Membrane separation unit experiments (transfer from air to octanol in LIQUI-CEL hollow fiber module). As to conditions: for Ko: air flow 20 L/min.

As for `Cc1cccc(C)c1` [m-xylene], the “transfer from air to octanol inside the membrane unit” value (LIQUI-CEL module, octanol) is “successfully transferred from air to octanol”. Also, the Ko is 3.1e-06 cm/s (octanol flow 0.12 L/min) and 1.03e-05 cm/s (octanol flow 0.56 L/min).
